Measurements: patent US8153609B2 (priority 2004, dated 2012)
At least one compound was matched to its structure with a doubt left.

Molecular target: PKA type IIα (RIIα holoenzyme) (Homo sapiens, UniProt P13861)
Test: Cook assay, activation of Holo RIIα
Conditions: read-out: EC50 (printed in column EC50 inhibition, agonist), Table 2, Holo RIIa, unit inferred

For `Nc1ncnc2c1nc(Br)n2[C@@H]1O[C@@H]2COP(O)(=S)O[C@@H]2C1O` (stereo partly shown) [Sp-8-Br-cAMPS, reference compound], the EC50 was 465 nM.
